Data on one molecule can be found in PMC7023381, “Sulfonamide Inhibition Profile of the β-Carbonic Anhydrase from Malassezia restricta, An Opportunistic Pathogen Triggering Scalp Conditions” (Metabolites, 2020).

In the experiment the target is T1, MreCA (Malassezia restricta, UniProt A0A3G2S4B9).
T1 construct: gene can; recombinant from synthetic gene in pET100D-Topo, E. coli BL21(DE3) codon plus; N-terminal His6-tag fusion, 27 kDa on SDS-PAGE; no tag cleavage told
T1 sequence (A0A3G2S4B9 1-238): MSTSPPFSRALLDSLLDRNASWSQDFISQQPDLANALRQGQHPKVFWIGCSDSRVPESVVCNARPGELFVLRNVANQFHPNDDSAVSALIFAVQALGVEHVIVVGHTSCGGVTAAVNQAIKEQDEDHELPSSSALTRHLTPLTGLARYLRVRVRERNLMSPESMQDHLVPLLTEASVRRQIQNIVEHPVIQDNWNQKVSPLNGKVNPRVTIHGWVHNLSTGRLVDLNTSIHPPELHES
The experiment in a line: stopped-flow CO2 hydrase assay. The format is biochemical.

pKi: −log10 of the molar value.

For `CCN[C@H]1C[C@H](C)S(=O)(=O)c2sc(S(N)(=O)=O)cc21` [DZA], the pKi (as a rule, −log10 of the Ki, conventionally taken in molar units) is 6.09.
